Results from paper PMC8964741.
Results are given in words; binding and its absence hold for the method and conditions named. In cells and extracts the contact can be indirect. Some binding calls cover weakened binding; strength is not graded here. Tags and fused reporters may be left off the sequences shown.

Molecular target: T1, Myc-tagged MCCC2 (methylcrotonoyl-CoA carboxylase subunit 2) (UniProt Q9HCC0)
T1 sequence: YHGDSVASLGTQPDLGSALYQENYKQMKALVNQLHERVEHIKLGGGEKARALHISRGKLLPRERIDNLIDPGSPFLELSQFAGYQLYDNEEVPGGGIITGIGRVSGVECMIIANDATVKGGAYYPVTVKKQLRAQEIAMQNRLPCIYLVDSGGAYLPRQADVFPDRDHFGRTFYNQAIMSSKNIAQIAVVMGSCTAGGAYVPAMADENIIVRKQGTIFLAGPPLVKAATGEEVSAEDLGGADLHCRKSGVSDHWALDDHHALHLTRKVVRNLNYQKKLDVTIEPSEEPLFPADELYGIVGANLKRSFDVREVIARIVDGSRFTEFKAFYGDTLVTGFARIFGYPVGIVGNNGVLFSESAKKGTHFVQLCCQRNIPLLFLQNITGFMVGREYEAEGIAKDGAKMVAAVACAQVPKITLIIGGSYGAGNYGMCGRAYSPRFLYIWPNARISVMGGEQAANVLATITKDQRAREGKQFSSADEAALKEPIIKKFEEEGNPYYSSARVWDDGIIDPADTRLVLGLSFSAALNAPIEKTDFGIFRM
Experiment: co-IP; HEK-293T co-transfected with Myc-tagged MCCC2 and Flag-tagged ACOX2, 36 h; Pierce IP Lysis Buffer; 200 μg lysate on anti-Myc agarose beads; immunoblotting

B1: Flag-tagged ACOX2 (pEnter-ACOX2-Flag-His) (enzyme, UniProt Q99424 1-681)
chain: MGSPVHRVSLGDTWSRQMHPDIESERYMQSFDVERLTNILDGGAQNTALRRKVESIIHSYPEFSCKDNYFMTQNERYKAAMRRAFHIRLIARRLGWLEDGRELGYAYRALSGDVALNIHRVFVRALRSLGSEEQIAKWDPLCKNIQIIATYAQTELGHGTYLQGLETEATYDAATQEFVIHSPTLTATKWWPGDLGRSATHALVQAQLICSGARRGMHAFIVPIRSLQDHTPLPGIIIGDIGPKMDFDQTDNGFLQLNHVRVPRENMLSRFAQVLPDGTYVKLGTAQSNYLPMVVVRVELLSGEILPILQKACVIAMRYSVIRRQSRLRPSDPEAKVLDYQTQQQKLFPQLAISYAFHFLAVSLLEFFQHSYTAILNQDFSFLPELHALSTGMKAMMSEFCTQGAEMCRRACGGHGYSKLSGLPSLVTKLSASCTYEGENTVLYLQVARFLVKSYLQTQMSPGSTPQRSLSPSVAYLTAPDLARCPAQRAADFLCPELYTTAWAHVAVRLIKDSVQHLQTLTQSGADQHEAWNQTTVIHLQAAKVHCYYVTVKGFTEALEKLENEPAIQQVLKRLCDLHAIHGILTNSGDFLHDAFLSGAQVDMARTAYLDLLRLIRKDAILLTDAFDFTDQCLNSALGCYDGNVYERLFQWAQKSPTNTQENPAYEEYIRPLLQSWRSKL
Q: B1 was tested. Which binding did it give?
A: The binding was “binds”.
